Some of the results follow. Shown are side measurements of this screen, not its main read-out; they come without a call. Compounds called inactive in the main read-out are mostly missing here. The note in brackets gives the kind of curve behind each potency; many fits are weak.
Test: Cell signaling CRE-BLA (Fsk stim)
Details: CHO CRE-bla reporter (cAMP response element driving beta-lactamase), forskolin EC10, beta-lactamase ratio; measured here: 460 nm blue channel
Summary of the method: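 Modulation of forskolin-driven signalling is measured in CHO cells carrying a CRE-controlled beta-lactamase reporter. Cells are stimulated with EC10 NKH 477 in the presence of titrated compound for 3 h at 37 °C, then loaded with CCF4 for 2 h at room temperature.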
In the case of `O=C(Nc1cccc(Cl)c1)c1ccc2c(=O)n3c(nc2c1)CCCCC3`, the AC50 was 1.58 µM [rising, partial curve].
For `Cc1cc(-c2ccccc2)n(-c2ccc(C(=O)N3CCN(c4ncccn4)CC3)cc2)n1`, the AC50 was 12.6 µM [rising, single point].
In the case of `CCC(=O)c1cc(F)c(N2CCN(S(=O)(=O)c3ccccc3)CC2)cc1C`, the AC50 was 3.98 µM [falling, partial curve].
With `O=C(O)c1cc(S(=O)(=O)N2CCCC2)ccc1Br` the AC50 was 1 µM [rising, single point].
For `COc1ccc(Cn2c(C3CC3)nc3ccc(NC(C)=O)cc3c2=O)cc1`, the AC50 was 5.01 µM [rising, partial curve].
For `CC1Cc2ccccc2N1C(=O)c1cc2c(=O)n3ccccc3nc2n1C` (centres undefined), the AC50 was 15.8 µM [rising, partial curve].
For `COC(=O)[C@@]1(Cc2ccc(OC)cc2)[C@H]2c3cc(C(=O)N4CCCC4)n(CCF)c3C[C@H]2CN1C(=O)c1ccccc1`, the AC50 was 0.1 µM [rising, full curve].
In the case of `O=c1[nH]c2ccccc2c2ccccc12`, the AC50 was 25.1 µM [rising, partial curve].
For `CCC1(CC)NC(=O)N(CC(=O)OCC(=O)Nc2cc(C)ccc2C)C1=O`, the AC50 was 3.98 µM [falling, single point].
With `CCS(=O)(=O)Nc1ccc(-c2ccc(NS(=O)(=O)CC)c(OC)c2)cc1OC` the AC50 was 12.6 µM [rising, partial curve].
With `CC1=C/C(=C\c2ccc3c(c2)OCO3)C(=O)S1` the AC50 was 0.1 µM [falling, full curve, poor fit].
With `CC(=O)N1CCN(c2ccc(Oc3ncnc4sccc34)cc2)CC1` the AC50 was 5.01 µM [falling, single point].
With `COc1cc2c(cc1OC)CN(C(=O)CSc1nnc3scc(-c4ccccc4)n13)CC2` the AC50 was 10 µM [rising, partial curve].
In the case of `CC1(C)CC(=O)C2=C(C1)OC(N)=C(C#N)C2c1ccccc1` (centres undefined), the AC50 was 0.794 µM [falling, single point].
With `Cc1cccc(OCc2nnc(SCc3cc(=O)n4cc(Br)ccc4n3)o2)c1` the AC50 was 10 µM [rising, partial curve].
With `C=C[C@H](N)CCC(=O)O` the AC50 was 31.6 µM [falling, single point].
In the case of `CCOC(=O)c1sc(NC(=O)c2c(C)nn(Cc3ccccc3)c2C)cc1C`, the AC50 was 10 µM [falling, partial curve].
With `CCc1c(C)c(C#N)c2nc3ccccc3n2c1N(C)C` the AC50 was 2.51 µM [rising, full curve].
For `Cc1nonc1NC(=O)Nc1cccnc1`, the AC50 was 0.0126 µM [falling, full curve, poor fit].
For `O=C(Nc1ccc(-c2noc(-c3cccs3)n2)cc1)c1cccnc1`, the AC50 was 20 µM [falling, single point].
For `COC(=O)c1c(N)c2ccccc2[nH]c1=O`, the AC50 was 25.1 µM [rising, single point].
In the case of `Cc1cc(C)cc(C(=O)N(C)[C@H](Cc2ccc(-c3ccccc3)cc2)C(=O)N[C@@H](Cc2c[nH]c3ccccc23)C(=O)O)c1`, the AC50 was 31.6 µM [falling, single point].
In the case of `CC1CCCC(C)N1C(=O)C1CC(c2ccc(F)cc2)=NO1` (centres undefined), the AC50 was 0.0794 µM [falling, full curve].
With `COc1ccc(CCNC(=O)CSc2nnc(-c3ccccc3)o2)cc1OC` the AC50 was 0.501 µM [falling, single point].
In the case of `COc1ccc(N2CCN(C(=O)C(CCSC)N=C3NS(=O)(=O)c4ccccc43)CC2)cc1` (centres undefined), the AC50 was 5.01 µM [falling, single point].
For `CC1(C(=O)O)CCC(C(=O)N2CCOCC2)C1(C)C` (centres undefined), the AC50 was 0.126 µM [falling, single point].
In the case of `C=CCn1c(NC(=O)c2ccc(C)cc2)c(C#N)sc1=N`, the AC50 was 25.1 µM [rising, single point].
With `O=c1oc2ccccc2n1CSC1=NCCS1` the AC50 was 10 µM [falling, single point].
For `O=C1Nc2ccc(S(=O)(=O)N3CCOCC3)c3cccc1c23`, the AC50 was 12.6 µM [rising, single point].
For `CCCCOC(=O)C1=C(C)Nc2ncnn2C1c1cccc(OC)c1` (centres undefined), the AC50 was 10 µM [rising, partial curve].
With `Cc1cc2ccccc2c(=O)n1CC(=O)NCC(=O)N1CCCC1` the AC50 was 3.98 µM [falling, full curve].
With `CCOC(=O)CC(=O)CSc1ccc2nnc(-c3ccc(F)cc3)n2n1` the AC50 was 10 µM [rising, single point].
In the case of `Cc1ccccc1-c1ccc2ncnc(NC3CC3)c2c1`, the AC50 was 6.31 µM [rising, partial curve].
In the case of `COc1cccc(Cn2c(=O)c(-c3ccc(F)cc3)nc3cncnc32)c1`, the AC50 was 12.6 µM [rising, single point].
With `CCC(C)NC(=O)CSc1nc2n[nH]c(C)c2c(=N)n1-c1ccc(OC)cc1` (centres undefined) the AC50 was 10 µM [rising, single point].
In the case of `Cc1cc2c(N=O)c(NO)ccc2[nH]1`, the AC50 was 12.6 µM [falling, partial curve].
With `CC(=O)Nc1cc(OC(C)=O)c2nonc2c1OC(C)=O` the AC50 was 6.31 µM [falling, partial curve].
With `Cc1ccc(CCC(=O)Nc2nccs2)o1` the AC50 was 0.00316 µM [falling, full curve, poor fit].
For `Cc1cc(C(=O)OCn2nnc3ccccc3c2=O)c(C)n1-c1ccccc1`, the AC50 was 3.98 µM [rising, single point].
For `CCOC(=O)Nc1ccc2ncn(C)c(=O)c2c1`, the AC50 was 12.6 µM [rising, single point].
In the case of `CCOc1ccccc1NC(=O)Cn1nnc(C(=O)Nc2ccc(C)cc2)c1N`, the AC50 was 3.98 µM [rising, partial curve].
In the case of `CCOCCCNC(=O)c1cn(C)c(=O)c2cc(OC)c(OC)cc12`, the AC50 was 2 µM [rising, partial curve].
With `Cn1c(SCC(=O)N2c3ccccc3Sc3ccc(Cl)cc32)nnc1-c1ccco1` the AC50 was 10 µM [rising, single point].
With `Cc1c(-c2ccc(F)cc2)nc(N)c(C#N)c1-c1ccco1` the AC50 was 5.01 µM [rising, partial curve].
With `COCCn1c(=O)c(-c2ccccc2)nc2cnc(Oc3ccccc3)nc21` the AC50 was 15.8 µM [rising, single point].
With `O=c1sc(N2CCN(c3ccccc3F)CC2)nc2ccsc12` the AC50 was 15.8 µM [rising, partial curve].
In the case of `Cc1ccc(S(=O)(=O)c2c(N)n(NC(=O)C3CC3)c3nc4ccccc4nc23)cc1`, the AC50 was 12.6 µM [rising, single point].
With `CCCc1nnc(SCC(=O)Nc2ccc(OCC)cc2)n1N` the AC50 was 3.16 µM [falling, single point].
With `CCOC(=O)C1CCN(Cc2ccc(O)c(OC)c2)CC1` the AC50 was 0.0631 µM [rising, full curve].
For `Nc1c(NCc2ccccc2F)c(=O)[nH]c(=O)n1Cc1ccccc1`, the AC50 was 12.6 µM [rising, single point].
With `c1ccc(-c2csc3ncnc(NCCN4CCOCC4)c23)cc1` the AC50 was 0.00316 µM [rising, full curve, poor fit].
With `O=C(O)COc1ccc(S(=O)(=O)c2ccc(OCC(=O)O)cc2)cc1` the AC50 was 0.501 µM [rising, partial curve].
For `Cn1c(=O)c2c(nc(Br)n2CCc2ccccc2)n(C)c1=O`, the AC50 was 10 µM [rising, single point].
With `Cc1cccc(-c2c3c(=O)n(C)c(=O)n(C)c3cn2CCO)c1` the AC50 was 0.1 µM [falling, full curve, poor fit].
With `Cc1occc1-c1nnc(SCC(=O)Nc2ccccc2)n1CCc1ccccc1` the AC50 was 12.6 µM [falling, single point].
With `Cn1c(=O)[nH]c2cc3ccccc3cc21` the AC50 was 0.398 µM [falling, full curve].
For `COC(=O)c1ccc(Cn2cnc3c(cnn3-c3ccc(Cl)cc3)c2=O)o1`, the AC50 was 3.16 µM [rising, full curve].
For `COc1cc(SC)ccc1C(=O)NC1CCCCC1`, the AC50 was 1 µM [falling, partial curve, poor fit].
In the case of `COCCNc1ncnc2ccc(-c3ccccc3C(F)(F)F)cc12`, the AC50 was 3.16 µM [rising, full curve, poor fit].
For `COC(=O)c1ccc(CSc2nc(-c3ccco3)cc(C(F)(F)F)n2)o1`, the AC50 was 10 µM [rising, partial curve].
In the case of `Nc1nc(-c2c[nH]c3ccccc23)cs1`, the AC50 was 0.251 µM [falling, full curve, poor fit].
In the case of `CCc1c(C)nc(SCC(=O)CC(=O)OC(C)C)c(C#N)c1C`, the AC50 was 12.6 µM [rising, single point].
With `CCOC(=O)c1coc(CNC(=O)c2c(C)oc3c2CCCC3)c1` the AC50 was 20 µM [rising, single point].
For `COCCNC(=O)C1CC(c2cccc(OC)c2)=NO1` (centres undefined), the AC50 was 7.94 µM [falling, partial curve, poor fit].
In the case of `COc1ccc2ccccc2c1CN1CCN(C(=O)c2ccccc2)CC1`, the AC50 was 0.0126 µM [falling, partial curve, poor fit].
In the case of `Cc1ccc2c(CC(=O)Nc3sccc3C(N)=O)coc2c1`, the AC50 was 10 µM [rising, partial curve].
In the case of `CCOC(=O)c1cnn2c(C)cc(-c3ccc(F)cc3)nc12`, the AC50 was 12.6 µM [rising, partial curve].
In the case of `CCOC(=O)c1c(COc2ccccc2)oc2ccc(O)cc12`, the AC50 was 25.1 µM [falling, single point].
In the case of `COc1cccc(Cn2c(=O)c(-c3ccc(F)cc3)nc3cnc(N(C)C)nc32)c1`, the AC50 was 1 µM [rising, full curve].
